According to publication PMC12120773, “SIRT4 Promotes Pancreatic Cancer Stemness by Enhancing Histone Lactylation and Epigenetic Reprogramming Stimulated by Calcium Signaling” (Advanced Science, 2025):
No constants are given. Whether binding was seen depends on the method and setting. In cells and extracts the contact can be indirect. These calls come from enrichment with a bait or labelling near it, and not all partners need be listed. Sequences can lack the tags named with a protein.

Protein sequences, listed by entry. Tags and fused reporters are not part of them.
UniProt P06733: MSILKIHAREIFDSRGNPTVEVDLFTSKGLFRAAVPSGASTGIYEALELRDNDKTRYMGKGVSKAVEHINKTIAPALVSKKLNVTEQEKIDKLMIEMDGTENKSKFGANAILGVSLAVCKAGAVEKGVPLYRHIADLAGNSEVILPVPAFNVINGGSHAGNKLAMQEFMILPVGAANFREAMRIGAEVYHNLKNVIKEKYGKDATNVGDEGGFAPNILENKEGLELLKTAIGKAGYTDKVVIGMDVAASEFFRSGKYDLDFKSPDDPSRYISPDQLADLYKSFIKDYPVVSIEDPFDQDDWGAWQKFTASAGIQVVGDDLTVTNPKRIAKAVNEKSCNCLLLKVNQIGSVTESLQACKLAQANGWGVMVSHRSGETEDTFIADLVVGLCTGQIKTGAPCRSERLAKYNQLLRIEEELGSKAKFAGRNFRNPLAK

Target: T1, SIRT4‐FLAG (human) (UniProt Q9Y6E7)
T1 sequence: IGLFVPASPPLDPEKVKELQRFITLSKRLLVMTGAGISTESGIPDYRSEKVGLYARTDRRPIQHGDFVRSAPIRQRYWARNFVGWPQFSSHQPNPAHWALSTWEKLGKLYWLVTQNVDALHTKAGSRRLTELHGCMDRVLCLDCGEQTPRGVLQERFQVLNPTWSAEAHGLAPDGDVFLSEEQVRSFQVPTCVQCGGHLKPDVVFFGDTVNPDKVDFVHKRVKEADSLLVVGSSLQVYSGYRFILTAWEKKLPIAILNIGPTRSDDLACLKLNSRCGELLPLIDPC
Assay: affinity purification with mass spectrometry; anti‐FLAG M2 beads on lysates of PANC‐1 cells expressing SIRT4‐FLAG or empty vector; SDS‐PAGE and silver stain; bands specific to SIRT4‐FLAG identified by mass spectrometry

## Enolase 1 (ENO1), endogenous in PANC‐1 (from UniProt P06733 1-434) (enzyme)
  binding: binds
